These are yes or no findings as the source states them, for the method shown. Binding seen in cells or lysates may run through a third protein. For some of these results: Binding can be weak; no strength is given. Where a sequence is shown, tags or fusion partners need not be part of it.
Assays:
[1] = biological target: T1, Flag-tagged porcine IRF3 (pIRF3) (porcine) (UniProt Q764M6); assay: co-IP; HEK293T cells cotransfected for 28 h; lysis buffer 50 mM Tris-HCl pH 7.4, 150 mM NaCl, 1% NP-40, 10% glycerin, 0.1% SDS, 2 mM Na2EDTA; precipitated at 4°C with anti-Flag affinity gel; western blot
T1 sequence: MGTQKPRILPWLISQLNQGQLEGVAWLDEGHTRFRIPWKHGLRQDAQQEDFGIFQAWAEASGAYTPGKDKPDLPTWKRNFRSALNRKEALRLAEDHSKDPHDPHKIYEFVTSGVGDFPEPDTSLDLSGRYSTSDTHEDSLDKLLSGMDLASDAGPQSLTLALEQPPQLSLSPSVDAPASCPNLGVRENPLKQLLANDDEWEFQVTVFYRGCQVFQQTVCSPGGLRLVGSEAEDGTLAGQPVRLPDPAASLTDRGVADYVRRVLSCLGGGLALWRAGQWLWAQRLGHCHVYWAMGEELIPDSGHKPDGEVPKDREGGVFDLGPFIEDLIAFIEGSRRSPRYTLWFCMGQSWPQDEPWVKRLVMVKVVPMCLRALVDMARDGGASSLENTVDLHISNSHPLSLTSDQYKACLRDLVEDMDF

[2] = biological target: T2, HA-tagged porcine Riplet (pRiplet) (porcine) (UniProt F1RKW3); assay: co-IP; HEK293T cells cotransfected for 28 h; same lysis buffer; precipitated at 4°C with anti-HA affinity gel; western blot
T2 sequence: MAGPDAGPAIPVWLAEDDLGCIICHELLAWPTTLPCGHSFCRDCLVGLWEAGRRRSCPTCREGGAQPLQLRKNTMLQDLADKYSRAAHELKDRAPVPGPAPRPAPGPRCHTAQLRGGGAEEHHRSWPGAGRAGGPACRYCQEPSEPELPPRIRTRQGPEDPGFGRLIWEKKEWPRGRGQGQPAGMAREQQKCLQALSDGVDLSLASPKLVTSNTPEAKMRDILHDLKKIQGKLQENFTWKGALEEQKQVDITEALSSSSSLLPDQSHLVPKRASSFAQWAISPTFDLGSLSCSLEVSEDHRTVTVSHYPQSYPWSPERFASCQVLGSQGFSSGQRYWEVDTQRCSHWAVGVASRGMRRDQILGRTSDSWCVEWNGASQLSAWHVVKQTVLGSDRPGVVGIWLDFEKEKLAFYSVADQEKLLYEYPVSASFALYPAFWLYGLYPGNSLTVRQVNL

[3] = biological target: Flag-pRIG-I-CTD (internal repressor domain, RD) (porcine); assay: co-IP; HEK293T cells cotransfected for 28 h; lysis buffer 50 mM Tris-HCl pH 7.4, 150 mM NaCl, 1% NP-40, 10% glycerin, 0.1% SDS, 2 mM Na2EDTA; precipitated at 4°C with anti-Flag affinity gel; western blot
[4] = biological target: Myc-tagged PDCoV nucleocapsid (N) protein (porcine deltacoronavirus (PDCoV)); assay: co-IP; HEK293T cells cotransfected for 28 h; same lysis buffer; precipitated with mouse Myc monoclonal antibody and protein A+G agarose beads; western blot

HA-tagged PDCoV nucleocapsid (N) protein (porcine deltacoronavirus (PDCoV))
binding [1]: no binding

Myc-tagged PDCoV nucleocapsid (N) protein (porcine deltacoronavirus (PDCoV))
binding [2]: no binding

B1: HA-tagged porcine Riplet (pRiplet) (protein, UniProt F1RKW3 1-454)
chain: T2 sequence
binding [3]: binds
binding [4]: no binding

Source: paper PMC6521028
